{
  "sequences": {"note": "Amino acid sequences for entries named in this document (tags omitted). A change or cut given only in a name is not applied to a line headed by its entry.", "UniProt O08786, whole entry, looked up": "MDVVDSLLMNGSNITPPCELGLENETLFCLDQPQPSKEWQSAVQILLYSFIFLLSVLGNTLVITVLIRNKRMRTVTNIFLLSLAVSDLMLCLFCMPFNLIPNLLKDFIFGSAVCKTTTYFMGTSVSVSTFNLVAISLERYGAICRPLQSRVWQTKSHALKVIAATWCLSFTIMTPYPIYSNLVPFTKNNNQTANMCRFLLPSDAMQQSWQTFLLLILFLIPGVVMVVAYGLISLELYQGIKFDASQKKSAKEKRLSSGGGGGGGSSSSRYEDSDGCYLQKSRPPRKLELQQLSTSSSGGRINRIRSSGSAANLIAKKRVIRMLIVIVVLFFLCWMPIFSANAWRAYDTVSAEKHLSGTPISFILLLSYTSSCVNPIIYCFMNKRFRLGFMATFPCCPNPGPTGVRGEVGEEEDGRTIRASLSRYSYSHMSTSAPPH", "UniProt P56481": "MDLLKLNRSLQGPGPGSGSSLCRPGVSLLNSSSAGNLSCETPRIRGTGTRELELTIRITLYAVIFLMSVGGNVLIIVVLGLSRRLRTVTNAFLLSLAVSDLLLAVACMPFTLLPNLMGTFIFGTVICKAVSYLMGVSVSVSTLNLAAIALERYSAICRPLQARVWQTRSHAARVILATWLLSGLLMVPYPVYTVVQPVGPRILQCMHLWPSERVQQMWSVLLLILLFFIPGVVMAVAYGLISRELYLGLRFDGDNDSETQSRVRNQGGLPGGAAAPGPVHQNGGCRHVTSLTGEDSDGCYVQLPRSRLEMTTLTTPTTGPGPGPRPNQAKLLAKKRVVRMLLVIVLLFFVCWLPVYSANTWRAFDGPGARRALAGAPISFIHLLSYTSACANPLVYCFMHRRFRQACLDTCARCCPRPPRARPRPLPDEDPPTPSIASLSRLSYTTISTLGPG", "UniProt P43140": "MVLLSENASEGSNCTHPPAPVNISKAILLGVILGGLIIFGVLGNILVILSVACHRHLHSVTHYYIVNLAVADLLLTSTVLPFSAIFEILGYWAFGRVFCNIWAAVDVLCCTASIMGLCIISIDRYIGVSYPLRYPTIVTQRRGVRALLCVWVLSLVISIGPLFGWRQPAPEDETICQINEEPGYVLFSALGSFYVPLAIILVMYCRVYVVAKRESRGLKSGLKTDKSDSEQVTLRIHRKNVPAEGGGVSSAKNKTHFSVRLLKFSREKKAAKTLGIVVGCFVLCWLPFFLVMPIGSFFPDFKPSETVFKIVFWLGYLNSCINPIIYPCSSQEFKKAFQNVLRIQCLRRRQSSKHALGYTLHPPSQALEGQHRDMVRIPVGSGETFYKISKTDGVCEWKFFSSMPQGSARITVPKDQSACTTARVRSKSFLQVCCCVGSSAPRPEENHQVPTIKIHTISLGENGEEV", "UniProt P35372, whole entry, looked up": "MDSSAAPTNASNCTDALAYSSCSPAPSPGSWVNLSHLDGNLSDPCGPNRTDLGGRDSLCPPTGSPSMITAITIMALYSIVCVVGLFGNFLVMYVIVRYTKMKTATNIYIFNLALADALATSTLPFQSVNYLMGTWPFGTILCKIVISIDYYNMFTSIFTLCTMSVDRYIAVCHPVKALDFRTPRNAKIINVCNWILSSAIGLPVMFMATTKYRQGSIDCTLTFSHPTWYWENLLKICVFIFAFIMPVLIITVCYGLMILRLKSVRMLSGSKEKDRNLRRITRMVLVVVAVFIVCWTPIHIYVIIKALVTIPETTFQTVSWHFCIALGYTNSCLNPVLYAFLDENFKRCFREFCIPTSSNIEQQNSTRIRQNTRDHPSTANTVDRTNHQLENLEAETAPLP", "UniProt P19327, whole entry, looked up": "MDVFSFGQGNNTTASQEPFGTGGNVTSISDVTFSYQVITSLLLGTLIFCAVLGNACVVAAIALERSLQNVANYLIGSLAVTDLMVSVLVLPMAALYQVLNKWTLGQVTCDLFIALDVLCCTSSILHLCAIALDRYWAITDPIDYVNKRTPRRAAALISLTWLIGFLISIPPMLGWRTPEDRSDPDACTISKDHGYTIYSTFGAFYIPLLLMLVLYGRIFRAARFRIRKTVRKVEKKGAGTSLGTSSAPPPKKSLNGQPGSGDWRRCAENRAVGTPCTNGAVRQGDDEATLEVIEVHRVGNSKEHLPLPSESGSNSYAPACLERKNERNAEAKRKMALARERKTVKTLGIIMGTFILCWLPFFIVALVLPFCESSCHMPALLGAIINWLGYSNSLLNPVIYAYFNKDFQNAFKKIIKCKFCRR", "UniProt O70528": "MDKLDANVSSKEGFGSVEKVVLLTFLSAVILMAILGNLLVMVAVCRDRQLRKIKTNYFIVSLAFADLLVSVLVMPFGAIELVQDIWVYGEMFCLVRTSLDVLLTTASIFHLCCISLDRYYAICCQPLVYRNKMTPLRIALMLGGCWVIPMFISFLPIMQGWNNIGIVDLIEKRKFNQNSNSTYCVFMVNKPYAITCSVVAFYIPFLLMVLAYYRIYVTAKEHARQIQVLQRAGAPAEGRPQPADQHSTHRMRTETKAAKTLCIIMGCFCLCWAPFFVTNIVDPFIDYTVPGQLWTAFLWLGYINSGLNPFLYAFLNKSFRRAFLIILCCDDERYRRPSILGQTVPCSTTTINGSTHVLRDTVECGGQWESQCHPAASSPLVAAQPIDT", "UniProt O70526, whole entry, looked up": "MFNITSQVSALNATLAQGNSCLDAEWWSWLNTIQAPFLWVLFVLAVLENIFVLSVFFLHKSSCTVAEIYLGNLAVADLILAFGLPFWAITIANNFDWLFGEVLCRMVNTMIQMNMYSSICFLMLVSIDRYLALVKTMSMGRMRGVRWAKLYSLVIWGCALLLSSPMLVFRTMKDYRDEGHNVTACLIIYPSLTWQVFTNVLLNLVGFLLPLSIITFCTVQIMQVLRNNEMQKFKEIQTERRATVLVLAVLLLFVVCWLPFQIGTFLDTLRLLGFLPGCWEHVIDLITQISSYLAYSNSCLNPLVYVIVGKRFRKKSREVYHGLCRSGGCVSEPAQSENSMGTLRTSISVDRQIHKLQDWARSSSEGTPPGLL"},
  "source": "PubChem BioAssay (EPA / NIEHS)",
  "key": {"[1]": {"test_system": "guinea pig Atrionatriuretic Peptide Receptor A (ANPA), gene 100135578", "assay": "NVS_GPCR_gANPA: NovaScreen (NVS) G Protein-Coupled Receptor Assay for guinea pig Atrionatriuretic Peptide Receptor A (ANPA) (AID 2283291)", "outline": "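Displacement of specific radioligand from guinea pig cerebellum membranes was read by scintillation after 1 h. A duplicate single-point screen at 25 uM was followed by a concentration series up to 50 uM, analysed relative to DMSO.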"}, "[2]": {"target": "mouse Cholecystokinin, CCK1 Receptor (CCKA), Cckar (gene 12425) (UniProt O08786)", "assay": "NVS_GPCR_mCCKAPeripheral: NovaScreen (NVS) G Protein-Coupled Receptor Assay for mouse Cholecystokinin, CCK1 Receptor (CCKA) (AID 2283285)", "outline": "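Chemicals were first screened in duplicate at 25 uM, with those meeting threshold (e.g., 30% inhibition) retested in singleton concentration series to 50 uM maximum. Binding of radioligand to mouse pancreatic membranes was read after 2 h by filtration and scintillation counting.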"}, "[3]": {"target": "mouse Cholecystokinin, CCK2 Receptor (CCKB), Cckbr (gene 12426) (UniProt P56481)", "assay": "NVS_GPCR_mCKKBCentral: NovaScreen (NVS) G Protein-Coupled Receptor Assay for mouse Cholecystokinin, CCK2 Receptor (CCKB) (AID 2283293)", "outline": "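Mouse forebrain membrane preparation incubated 2 h with chemical and radioligand; bound radioactivity counted after filtration. Single-concentration duplicate screen at 25 uM, then concentration series to 50 uM max for hits, DMSO as baseline.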"}, "[4]": {"target": "rat Adrenergic, Alpha 1, Non-selective Receptor (Adra1), Adra1a (gene 29412) (UniProt P43140)", "assay": "NVS_GPCR_rAdra1_NonSelective: NovaScreen (NVS) G Protein-Coupled Receptor Assay for rat Adrenergic, Alpha 1, Non-selective Receptor (Adra1) (AID 2283289)", "outline": "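Chemicals first screened in duplicate at 25 uM, then actives tested in concentration series up to 50 uM. Binding measured as displacement of radioligand from rat forebrain membrane receptors, 1 h, filtration with scintillation readout; DMSO baseline.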"}, "[5]": {"target": "human Opioid Receptor Mu (Opiate Mu), OPRM1 (gene 4988) (UniProt P35372)", "assay": "NVS_GPCR_hOpiate_mu: NovaScreen (NVS) G Protein-Coupled Receptor Assay for human Opioid Receptor Mu (Opiate Mu) (AID 2283290);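 note: hits lower bound tracer signal versus DMSO meaning displacement of the ligand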", "outline": "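Here, radioligand binding to CHO-extracted receptor was measured after 2.5 h using filter-based scintillation detection. Initial single-concentration screening used 25 uM in duplicate with plate controls; confirmed actives went to concentration-response testing.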"}, "[6]": {"test_system": "5-hydroxytryptamine receptor 2C (pig)", "assay": "NVS_GPCR_p5HT2C: NovaScreen (NVS) G Protein-Coupled Receptor Assay for pig Serotonin, 5-Hydroxytryptamine Receptor 2C (5HT2C) (AID 2283288)", "outline": "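Radioligand displacement on membranes from pig choroid plexus, detected by filter scintillation counting after 1 h. Tested first at a single 25 uM in duplicate, then in concentration-response for actives; DMSO served as baseline.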"}, "[7]": {"target": "rat Serotonin, 5-Hydroxytryptamine Receptor 1 (5HT1), Non-Selective Binding, Htr1a (gene 24473) (UniProt P19327)", "assay": "NVS_GPCR_r5HT1_NonSelective: NovaScreen (NVS) G Protein-Coupled Receptor Assay for rat Serotonin, 5-Hydroxytryptamine Receptor 1 (5HT1), Non-Selective Binding (AID 2283286)", "outline": "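Binding of a radioligand to rat cortex membranes is read by filtration and scintillation counting after 1 h. Compounds were screened at 25 uM in duplicate. Actives were then titrated to a top of 50 uM. DMSO is the baseline.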"}, "[8]": {"target": "guinea pig Serotonin, 5-Hydroxytryptamine Receptor 4 (5HT4), HTR4 (gene 100135548) (UniProt O70528)", "assay": "NVS_GPCR_g5HT4: NovaScreen (NVS) G Protein-Coupled Receptor Assay for guinea pig Serotonin, 5-Hydroxytryptamine Receptor 4 (5HT4) (AID 2283294)", "outline": "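Compounds first screened in duplicate at 25 uM, actives followed up in concentration series. Binding measured as displacement of specific radioligand from guinea pig striatal membranes, 1 h, filter-based scintillation read-out versus DMSO baseline.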"}, "[9]": {"target": "guinea pig Bradykinin Receptor B2 (BK2), BDKRB2 (gene 100135486) (UniProt O70526)", "assay": "NVS_GPCR_gBK2: NovaScreen (NVS) G Protein-Coupled Receptor Assay for guinea pig Bradykinin Receptor B2 (BK2) (AID 2283292)", "outline": "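Guinea pig ileum membrane preparation incubated 1 h with radioligand and test chemical; bound counts measured after filtration. Primary duplicate screening at 25 uM, then singleton concentration series with a 50 uM top dose; DMSO as baseline.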"}, "[10]": {"test_system": "rabbit Platelet Activating Factor Receptor (PAF), gene 100354046", "assay": "NVS_GPCR_rabPAF: NovaScreen (NVS) G Protein-Coupled Receptor Assay for rabbit Platelet Activating Factor Receptor (PAF) (AID 2283287)", "outline": "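Rabbit platelet membrane preparation; radioligand displacement read by filter-based scintillation counting 1 h after dosing, loss of signal versus DMSO. Primary screen in duplicate at 25 uM, actives followed up in concentration series.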"}, "[11]": {"target": "rat Serotonin, 5-Hydroxytryptamine Receptor (5HT), Non-Selective Binding, Htr1a (gene 24473) (UniProt P19327)", "assay": "NVS_GPCR_r5HT_NonSelective: NovaScreen (NVS) G Protein-Coupled Receptor Assay for rat Serotonin, 5-Hydroxytryptamine Receptor (5HT), Non-Selective Binding (AID 2283295)", "outline": "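Rat cortex membrane preparation incubated 1 h with radioligand and test chemical; bound radioactivity counted after filtration. Screening began in duplicate at 25 uM with concentration-series follow-up; fitting relative to DMSO.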"}, "[12]": {"target": "rat Adrenergic, Alpha 1A Receptor (Adra1A), Adra1a (gene 29412) (UniProt P43140)", "assay": "NVS_GPCR_rAdra1A: NovaScreen (NVS) G Protein-Coupled Receptor Assay for rat Adrenergic, Alpha 1A Receptor (Adra1A) (AID 2283296)", "outline": "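Filter radiodetection after 1 h competitive binding on CEC-pretreated rat cortical membranes. Duplicate single-point screening at 25 uM; active chemicals retested across concentration series.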"}},
  "note": "This list was built around the results that the source calls inconclusive (neither active nor inactive); the mix of calls is not that of the screen. For some assays here: Potencies beside an inconclusive call are fits to weak or partial responses and may not hold up. The source made the active and inactive calls. Rule for the calls: active = hit-call score of the fitted dose curve at least 0.9, where 1 is the maximum; inconclusive = response in the unintended direction; inactive = score below 0.9.",
  "data": [
    {"smiles": "COc1cc(OC)nc(NC(=O)NS(=O)(=O)c2ncccc2OCC(F)(F)F)n1", "values": [
      {"measurement": "AC50", "setting": "[1]", "value": "inconclusive: 26 µM"}
    ]},
    {"smiles": "CC1(c2ccc(Oc3ccccc3)cc2)OC(=O)N(Nc2ccccc2)C1=O", "note": "(configuration not stated)", "values": [
      {"measurement": "AC50", "setting": "[2]", "value": "inconclusive: 45.9 µM"}
    ]},
    {"smiles": "CCC(C)(C)C(=O)OC1=C(c2ccc(Cl)cc2Cl)C(=O)OC12CCCCC2", "values": [
      {"measurement": "outcome", "setting": "[3]", "value": "inactive"}
    ]},
    {"smiles": "Cn1sc(Cl)cc1=O", "values": [
      {"measurement": "AC50", "setting": "[2]", "value": "inconclusive: 25 µM"},
      {"measurement": "AC50", "setting": "[4]", "value": "inconclusive: 0.0257 µM"}
    ]},
    {"smiles": "NC(=O)CCl", "values": [
      {"measurement": "AC50", "setting": "[5]", "value": "inconclusive: 6.26 µM"}
    ]},
    {"smiles": "CCCCCCCCn1sccc1=O", "values": [
      {"measurement": "AC50", "setting": "[5]", "value": "active: 7.66 µM"}
    ]},
    {"smiles": "CCC(=O)C(CC(C)N(C)C)(c1ccccc1)c1ccccc1", "note": "(configuration not stated)", "values": [
      {"measurement": "AC50", "setting": "[6]", "value": "active: 1.91 µM"}
    ]},
    {"smiles": "CCCCOC(=O)c1ccccc1C(=O)OCCCC", "values": [
      {"measurement": "AC50", "setting": "[7]", "value": "inconclusive: 25 µM"}
    ]},
    {"smiles": "Cl/C=C\\CCl", "values": [
      {"measurement": "AC50", "setting": "[5]", "value": "inconclusive: 25 µM"}
    ]},
    {"smiles": "CO/C=C(/C(=O)OC)c1ccccc1Oc1cc(Oc2ccccc2C#N)ncn1", "values": [
      {"measurement": "outcome", "setting": "[2]", "value": "inactive"}
    ]},
    {"smiles": "COc1ccc(C(c2ccc(OC)cc2)C(Cl)(Cl)Cl)cc1", "values": [
      {"measurement": "outcome", "setting": "[5]", "value": "inactive"},
      {"measurement": "AC50", "setting": "[8]", "value": "inconclusive: 25 µM"}
    ]},
    {"smiles": "Cc1ccc(O)c(C)c1", "values": [
      {"measurement": "outcome", "setting": "[6]", "value": "inactive"}
    ]},
    {"smiles": "ClC(Cl)=C(c1ccc(Cl)cc1)c1ccc(Cl)cc1", "values": [
      {"measurement": "AC50", "setting": "[5]", "value": "inconclusive: 25 µM"}
    ]},
    {"smiles": "CC(C)(c1ccccc1)c1ccc(O)cc1", "values": [
      {"measurement": "AC50", "setting": "[2]", "value": "active: 18.2 µM"}
    ]},
    {"smiles": "CC(C)(C)C(O)(CCc1ccc(Cl)cc1)Cn1cncn1", "note": "(configuration not stated)", "values": [
      {"measurement": "outcome", "setting": "[2]", "value": "inactive"}
    ]},
    {"smiles": "N#Cc1c(-c2ccc(Cl)cc2)[nH]c(C(F)(F)F)c1Br", "values": [
      {"measurement": "outcome", "setting": "[5]", "value": "inactive"}
    ]},
    {"smiles": "CCCCCOC(=O)c1ccccc1C(=O)OCCCCC", "values": [
      {"measurement": "AC50", "setting": "[5]", "value": "inconclusive: 25 µM"},
      {"measurement": "outcome", "setting": "[3]", "value": "inactive"},
      {"measurement": "outcome", "setting": "[8]", "value": "inactive"}
    ]},
    {"smiles": "COC(=O)NC(=S)Nc1ccccc1NC(=S)NC(=O)OC", "values": [
      {"measurement": "outcome", "setting": "[9]", "value": "inactive"}
    ]},
    {"smiles": "CNC(=O)ON=C(SC)C(=O)N(C)C", "values": [
      {"measurement": "AC50", "setting": "[10]", "value": "inconclusive: 25 µM"}
    ]},
    {"smiles": "CC(C)C(=O)OCC(C)(C)C(OC(=O)C(C)C)C(C)C", "note": "(configuration not stated)", "values": [
      {"measurement": "AC50", "setting": "[1]", "value": "inconclusive: 1.88 µM"}
    ]},
    {"smiles": "CSC(C)(C)C=NO", "values": [
      {"measurement": "AC50", "setting": "[6]", "value": "inconclusive: 25 µM"},
      {"measurement": "outcome", "setting": "[5]", "value": "inactive"}
    ]},
    {"smiles": "C=CCC1=C(C)C(OC(=O)C2C(C=C(C)C)C2(C)C)CC1=O", "note": "(configuration not stated)", "values": [
      {"measurement": "AC50", "setting": "[5]", "value": "inconclusive: 42.5 µM"},
      {"measurement": "AC50", "setting": "[11]", "value": "inconclusive: 0.189 µM"}
    ]},
    {"smiles": "CCc1cccc(CC)c1N(COC)C(=O)CCl", "values": [
      {"measurement": "outcome", "setting": "[1]", "value": "inactive"}
    ]},
    {"smiles": "CCc1ccc(C(=O)NN(C(=O)c2cc(C)cc(C)c2)C(C)(C)C)cc1", "values": [
      {"measurement": "outcome", "setting": "[3]", "value": "inactive"}
    ]},
    {"smiles": "Cn1c(-c2ccccc2)cc(-c2ccccc2)[n+]1C", "values": [
      {"measurement": "AC50", "setting": "[3]", "value": "inconclusive: 25 µM"}
    ]},
    {"smiles": "CSC1=N[C@@](C)(c2ccccc2)C(=O)N1Nc1ccccc1", "values": [
      {"measurement": "outcome", "setting": "[12]", "value": "inactive"}
    ]}
  ]
}
